We go through two molecules from publication doi:10.1101/2021.03.23.436655.

The target in assay [1] is eIF4E-3 F103A, GAL4 DNA-binding domain fusion (Drosophila melanogaster). The assay can be described thus: two-hybrid.
For assay [2], the target named is eIF4E-3, GAL4 DNA-binding domain fusion (Drosophila melanogaster). The assay can be described thus: two-hybrid.

Positions count from the first letter of the chain named. In names and notes the source's numbering stands. Results are given in words; binding and its absence hold for the method and conditions named. For part of these data: A result given as binding can be weak or reduced; the word gives no strength. Tags and fused reporters may be left off the sequences shown.

B1: Maternal expression at 31B (Me31B), GAL4 activation domain fusion (protein, UniProt P23128 1-459)
chain: MMTEKLNSGHTNLTSKGIINDLQIAGNTSDDMGWKSKLKLPPKDNRFKTTDVTDTRGNEFEEFCLKRELLMGIFEKGWERPSPIQEAAIPIALSGKDVLARAKNGTGKTGAYCIPVLEQIDPTKDYIQALVMVPTRELALQTSQICIELAKHLDIRVMVTTGGTILKDDILRIYQKVQLIIATPGRILDLMDKKVADMSHCRILVLDEADKLLSLDFQGMLDHVILKLPKDPQILLFSATFPLTVKNFMEKHLREPYEINLMEELTLKGVTQYYAFVQERQKVHCLNTLFSKLQINQSIIFCNSTQRVELLAKKITELGYCCYYIHAKMAQAHRNRVFHDFRQGLCRNLVCSDLFTRGIDVQAVNVVINFDFPRMAETYLHRIGRSGRFGHLGIAINLITYEDRFDLHRIEKELGTEIKPIPKVIDPALYVANVGASVGDTCNNSDLNNSANEEGNVSK
With B1, the binding result in assay [1] is “no binding”; in assay [2] it was “binds”.

B2: Me31B F63A, GAL4 activation domain fusion (protein, UniProt P23128 1-459)
chain: B1 chain with F63A
Turning to B2, the binding result in assay [2] is given as “no binding”.
